Reference: the supplement of paper PMC10689618
Structures can show the parent of a compound that is named as a salt. Some of the results follow. Single values are uncertain, as repeats are few or missing.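 Labelled rat cortical synaptosomes were engulfed by primary human fetal astrocytes. Engulfment equaled a red/green ratio, corrected for calcein live-cell signal and normalized to the plate median. Compounds were toxic when calcein dropped over 30%, and reduced phagocytosis when below 70% of the median above 5 µM.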

Key:
Settings in all cases: 24 h
Human fetal astrocytes [1] = assay: loss of total cells relative to no-compound high-control median (toxicity); higher = more toxic (fewer cells)
Human fetal astrocytes [2] = assay: as above; remark: listed apart in the source
Human fetal astrocytes [3] = assay: synaptosome phagocytosis (pHrodo/calcein intensity ratio) relative to plate median of data wells; higher = more phagocytosis
Human fetal astrocytes [4] = assay: as above; remark: listed apart in the source

| SMILES | loss of total cells (Human fetal astrocytes [1]; 1.39 µM) [%] | loss of total cells (Human fetal astrocytes [1]; 2.78 µM) [%] | loss of total cells (Human fetal astrocytes [1]; 5.56 µM) [%] | loss of total cells (Human fetal astrocytes [1]; 11.11 µM) [%] | loss of total cells (Human fetal astrocytes [1]; 22.22 µM) [%] | loss of total cells (Human fetal astrocytes [2]; 1.39 µM) [%] | loss of total cells (Human fetal astrocytes [2]; 2.78 µM) [%] | loss of total cells (Human fetal astrocytes [2]; 5.56 µM) [%] | loss of total cells (Human fetal astrocytes [2]; 11.11 µM) [%] | loss of total cells (Human fetal astrocytes [2]; 22.22 µM) [%] | synaptosome phagocytosis (Human fetal astrocytes [3]; 1.39 µM) [%] | synaptosome phagocytosis (Human fetal astrocytes [3]; 2.78 µM) [%] | synaptosome phagocytosis (Human fetal astrocytes [3]; 5.56 µM) [%] | synaptosome phagocytosis (Human fetal astrocytes [3]; 11.11 µM) [%] | synaptosome phagocytosis (Human fetal astrocytes [3]; 22.22 µM) [%] | synaptosome phagocytosis (Human fetal astrocytes [4]; 1.39 µM) [%] | synaptosome phagocytosis (Human fetal astrocytes [4]; 2.78 µM) [%] | synaptosome phagocytosis (Human fetal astrocytes [4]; 5.56 µM) [%] | synaptosome phagocytosis (Human fetal astrocytes [4]; 11.11 µM) [%] | synaptosome phagocytosis (Human fetal astrocytes [4]; 22.22 µM) [%] |
| --- | --- | --- | --- | --- | --- | --- | --- | --- | --- | --- | --- | --- | --- | --- | --- | --- | --- | --- | --- | --- |
| Nc1nnc(-c2cccc(Cl)c2Cl)c(N)n1 [Lamotrigine] | -7.1 | -11.3 | -14.6 | 1 | 19.6 | -45.2 | -42.1 | -11.2 | 8.2 | 0.9 | 118 | 96.3 | 114 | 88.3 | 99 | 123 | 100 | 106 | 118 | 99.7 |
| CNCCCC1c2ccccc2C=Cc2ccccc21 [Protriptyline hydrochloride] | 0.3 | -14.7 | -19.1 | 1.1 | -9.9 | -16.3 | 1.3 | 38.9 | 44.5 | 5.6 | 80.3 | 91.6 | 115 | 120 | 67.4 | 104 | 96.4 | 98.4 | 129 | 60.8 |
| O=c1c(O)c(-c2ccc(O)cc2O)oc2cc(O)cc(O)c12 [Morin] | -10.9 | 4.1 | 15.5 | -3.8 | 23.4 | -13.1 | -9 | 3.7 | 10.8 | -2.2 | 135 | 100 | 84.6 | 116 | 82.2 | 104 | 119 | 95.5 | 100 | 125 |
| CCN(CC)CC(=O)Nc1c(C)cccc1C [Lidocaine hydrochloride] | -13.7 | 5.9 | 3.3 | 20 | 6.5 | 41.2 | -15.3 | 11.1 | 8.9 | -27.1 | 60.3 | 41.2 | 28.4 | 62.7 | 63.4 | 103 | 103 | 80.5 | 123 | 132 |
| CCCCc1oc2ccccc2c1C(=O)c1cc(I)c(OCCN(CC)CC)c(I)c1 [Amiodarone hydrochloride] | -11 | -15.6 | -16.1 | 24.7 | 35.7 | -17.8 | 15.9 | -5.3 | 45.2 | 52.2 | 78.3 | 73.2 | 109 | 62.4 | 6.7 | 105 | 106 | 107 | 45.5 | 71.7 |
| CCN(CC)CC#CCOC(=O)C(O)(c1ccccc1)C1CCCCC1 (stereo not given) [Oxybutynin Chloride] | -23.2 | 5 | 6.1 | 12.4 | 19.6 | 24.9 | -11.3 | 16.5 | 0.8 | 13.6 | 96.8 | 73.8 | 93.8 | 104 | 107 | 117 | 120 | 103 | 91.8 | 93.8 |
| CC(C)Cc1ccc(C(C)C(=O)O)cc1 (racemic) [(±)-Ibuprofen] | -12.8 | 5.9 | -3.3 | -5.7 | 0 | -2.1 | -34.2 | -16 | 2.6 | -21.6 | 90.8 | 121 | 114 | 61.3 | 58.3 | 106 | 117 | 101 | 139 | 116 |
| NCCCCC(=O)O [5-Aminovaleric acid hydrochloride] | -2.2 | -4.5 | -6.9 | -10.3 | -4.9 | 10.5 | -6.9 | 11.6 | 1.3 | 11.4 | 117 | 106 | 96.1 | 87.1 | 134 | 115 | 136 | 87.6 | 94.6 | 104 |
| CC(=O)O[C@H]1C(=O)[C@@]2(C)[C@H]([C@H](OC(=O)c3ccccc3)[C@]3(O)C[C@H](OC(=O)[C@H](O)[C@@H](NC(=O)c4ccccc4)c4ccccc4)C(C)=C1C3(C)C)[C@]1(OC(C)=O)CO[C@@H]1C[C@@H]2O [Taxol] | 3.4 | -12.3 | 11.2 | -5.7 | -4.1 | -35.5 | 23 | -3.1 | 25.2 | 16.5 | 116 | 136 | 112 | 132 | 116 | 143 | 109 | 124 | 127 | 134 |
| CN1CCN(C2=Nc3ccccc3Oc3ccc(Cl)cc32)CC1 [Loxapine succinate] | -2.4 | 5 | 2.3 | 16.2 | -13.1 | -18.5 | 16.6 | -13.7 | 3.2 | -7 | 101 | 110 | 103 | 72.6 | 102 | 102 | 81.2 | 73.1 | 97.3 | 102 |
| COc1ccc2cc([C@H](C)C(=O)O)ccc2c1 [(-)-Naproxen sodium] | -9 | 7.7 | 3.3 | -4.8 | 0 | -27.4 | -18 | -0.9 | -2.3 | 12.5 | 89 | 93.5 | 102 | 128 | 108 | 97.7 | 106 | 109 | 111 | 108 |
| CN(C)CCC=C1c2ccccc2C=Cc2ccccc21 [Cyclobenzaprine hydrochloride] | -12.1 | -12.3 | -6 | 5.8 | 14.7 | -2.5 | 6.9 | 5.8 | 11.3 | -6.8 | 70.4 | 56.8 | 69.9 | 70.2 | 52.6 | 84.5 | 105 | 103 | 83.7 | 102 |
| NCCc1c[nH]cn1 [Histamine dihydrochloride] | -5.4 | -20.5 | 0.8 | 10.3 | 3.2 | 2.7 | -18 | -25.1 | 6.1 | 15.5 | 92.6 | 111 | 119 | 123 | 100 | 101 | 123 | 122 | 139 | 133 |
| NC(N)=NC(N)=Nc1ccccc1 [1-Phenylbiguanide] | -26.4 | -20.7 | -5.6 | -14.9 | -28 | -17.2 | -4 | -6.6 | 1.4 | 11.9 | 119 | 67.2 | 106 | 113 | 110 | 106 | 101 | 97.2 | 115 | 150 |
| Clc1ccc2c(c1)C(N1CCNCC1)=Nc1ccccc1O2 [Amoxapine] | -20.9 | -11.7 | -26.3 | 2.2 | 12.4 | 6.9 | 4.7 | 2.3 | 49.7 | 16.7 | 101 | 85.5 | 70.2 | 129 | 68.9 | 91 | 95.5 | 104 | 88 | 81.6 |
| O=NN(CCCl)C(=O)NCCCl [Carmustine] | -12.8 | -9.6 | -6.9 | -17.5 | -4.1 | -33.1 | -15.1 | 0 | 11.5 | 4 | 90 | 91.3 | 99 | 75.4 | 93.7 | 95.1 | 111 | 93.2 | 134 | 122 |
| CN(C)CCCC1(c2ccc(F)cc2)OCc2cc(C#N)ccc21 (stereo not given) [Citalopram hydrobromide] | -12.1 | -7.2 | -8.8 | -8.5 | 12.4 | -35.5 | 35.7 | 11.8 | 53.4 | 15.9 | 67.3 | 119 | 89.3 | 92.5 | 84.5 | 78.6 | 100 | 85.6 | 96.3 | 91.2 |
| CNC[C@H](O)c1cccc(O)c1 [Phenylephrine hydrochloride] | -19.4 | 4.1 | -9.9 | -2.9 | 16.8 | -8.6 | -2.4 | -19.5 | -4.9 | 28.9 | 94.2 | 136 | 134 | 93.6 | 111 | 68.7 | 61.4 | 81.6 | 85.1 | 114 |
| Cc1ccc(N(CC2=NCCN2)c2cccc(O)c2)cc1 [Phentolamine mesylate] | -9 | -30.8 | -9.6 | 6.5 | -0.8 | -12.8 | -9.2 | -4.2 | -7.8 | -32.5 | 90.8 | 99.5 | 59 | 67.9 | 53.9 | 113 | 93.3 | 124 | 81.8 | 86.5 |
| CN(C)CCC=C1c2ccccc2CCc2ccccc21 [Amitriptyline hydrochloride] | -8.8 | -8.4 | -22.6 | -4.9 | -4.9 | -1.7 | -10.7 | -12.3 | -31.3 | -2.3 | 79.1 | 89.5 | 74.6 | 151 | 53.7 | 114 | 81.2 | 97.8 | 73 | 114 |
| COc1ccccc1N1CCN(CCCNc2cc(=O)n(C)c(=O)n2C)CC1 [Urapidil hydrochloride] | -18.9 | -11.1 | -3.9 | 4.2 | -29.6 | 20.6 | 30 | 17.4 | 5.4 | 21.2 | 127 | 91 | 103 | 103 | 112 | 104 | 87.9 | 105 | 92.9 | 65.9 |
| N=C(N)NCCCCNC(=N)N [Arcaine sulfate] | 4.4 | -16.8 | 0.5 | -25.6 | -10.2 | -24.6 | 4.7 | -4.4 | 7.4 | 4.4 | 93.5 | 48 | 110 | 142 | 62.1 | 99.5 | 121 | 102 | 93.8 | 135 |
| Nc1nc2c(ncn2COCCO)c(=O)[nH]1 [Acyclovir] | -12.5 | -19.5 | -31.8 | -8.5 | -7.9 | -23.4 | -28.6 | 1.2 | 29.8 | 10.3 | 109 | 113 | 125 | 118 | 118 | 91.8 | 112 | 104 | 90 | 120 |
| CNC(=C[N+](=O)[O-])NCCSCc1ccc(CN(C)C)o1 [Ranitidine hydrochloride] | -7.1 | -21.3 | -11.8 | -12.6 | 0.8 | -21.6 | -9.5 | 9.3 | 7.8 | 5.7 | 84.1 | 100 | 105 | 80.1 | 102 | 101 | 98.5 | 90.3 | 126 | 90.3 |

Some of these compounds in order of count of non-hydrogen atoms, ascending.

| SMILES | loss of total cells (Human fetal astrocytes [1]; 1.39 µM) [%] | loss of total cells (Human fetal astrocytes [1]; 2.78 µM) [%] | loss of total cells (Human fetal astrocytes [1]; 5.56 µM) [%] | loss of total cells (Human fetal astrocytes [1]; 11.11 µM) [%] | loss of total cells (Human fetal astrocytes [1]; 22.22 µM) [%] | loss of total cells (Human fetal astrocytes [2]; 1.39 µM) [%] | loss of total cells (Human fetal astrocytes [2]; 2.78 µM) [%] | loss of total cells (Human fetal astrocytes [2]; 5.56 µM) [%] | loss of total cells (Human fetal astrocytes [2]; 11.11 µM) [%] | loss of total cells (Human fetal astrocytes [2]; 22.22 µM) [%] | synaptosome phagocytosis (Human fetal astrocytes [3]; 1.39 µM) [%] | synaptosome phagocytosis (Human fetal astrocytes [3]; 2.78 µM) [%] | synaptosome phagocytosis (Human fetal astrocytes [3]; 5.56 µM) [%] | synaptosome phagocytosis (Human fetal astrocytes [3]; 11.11 µM) [%] | synaptosome phagocytosis (Human fetal astrocytes [3]; 22.22 µM) [%] | synaptosome phagocytosis (Human fetal astrocytes [4]; 1.39 µM) [%] | synaptosome phagocytosis (Human fetal astrocytes [4]; 2.78 µM) [%] | synaptosome phagocytosis (Human fetal astrocytes [4]; 5.56 µM) [%] | synaptosome phagocytosis (Human fetal astrocytes [4]; 11.11 µM) [%] | synaptosome phagocytosis (Human fetal astrocytes [4]; 22.22 µM) [%] |
| --- | --- | --- | --- | --- | --- | --- | --- | --- | --- | --- | --- | --- | --- | --- | --- | --- | --- | --- | --- | --- |
| O=NN(CCCl)C(=O)NCCCl [Carmustine] | -12.8 | -9.6 | -6.9 | -17.5 | -4.1 | -33.1 | -15.1 | 0 | 11.5 | 4 | 90 | 91.3 | 99 | 75.4 | 93.7 | 95.1 | 111 | 93.2 | 134 | 122 |
| CCN(CC)CC(=O)Nc1c(C)cccc1C [Lidocaine hydrochloride] | -13.7 | 5.9 | 3.3 | 20 | 6.5 | 41.2 | -15.3 | 11.1 | 8.9 | -27.1 | 60.3 | 41.2 | 28.4 | 62.7 | 63.4 | 103 | 103 | 80.5 | 123 | 132 |
| CN1CCN(C2=Nc3ccccc3Oc3ccc(Cl)cc32)CC1 [Loxapine succinate] | -2.4 | 5 | 2.3 | 16.2 | -13.1 | -18.5 | 16.6 | -13.7 | 3.2 | -7 | 101 | 110 | 103 | 72.6 | 102 | 102 | 81.2 | 73.1 | 97.3 | 102 |
